Test results as given in the supplement of paper PMC10849652.
This is one part of the list.

By UniProt entry, the sequences of proteins in these tests, tags left out. Where a name states a change or a piece, a line headed by the entry shows the natural chain unless it says otherwise.
UniProt Q9UKJ5: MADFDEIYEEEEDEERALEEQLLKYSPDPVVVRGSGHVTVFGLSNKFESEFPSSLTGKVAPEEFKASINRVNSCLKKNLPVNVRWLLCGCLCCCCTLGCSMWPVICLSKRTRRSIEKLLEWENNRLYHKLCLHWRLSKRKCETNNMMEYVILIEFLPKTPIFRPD
UniProt Q7Z460: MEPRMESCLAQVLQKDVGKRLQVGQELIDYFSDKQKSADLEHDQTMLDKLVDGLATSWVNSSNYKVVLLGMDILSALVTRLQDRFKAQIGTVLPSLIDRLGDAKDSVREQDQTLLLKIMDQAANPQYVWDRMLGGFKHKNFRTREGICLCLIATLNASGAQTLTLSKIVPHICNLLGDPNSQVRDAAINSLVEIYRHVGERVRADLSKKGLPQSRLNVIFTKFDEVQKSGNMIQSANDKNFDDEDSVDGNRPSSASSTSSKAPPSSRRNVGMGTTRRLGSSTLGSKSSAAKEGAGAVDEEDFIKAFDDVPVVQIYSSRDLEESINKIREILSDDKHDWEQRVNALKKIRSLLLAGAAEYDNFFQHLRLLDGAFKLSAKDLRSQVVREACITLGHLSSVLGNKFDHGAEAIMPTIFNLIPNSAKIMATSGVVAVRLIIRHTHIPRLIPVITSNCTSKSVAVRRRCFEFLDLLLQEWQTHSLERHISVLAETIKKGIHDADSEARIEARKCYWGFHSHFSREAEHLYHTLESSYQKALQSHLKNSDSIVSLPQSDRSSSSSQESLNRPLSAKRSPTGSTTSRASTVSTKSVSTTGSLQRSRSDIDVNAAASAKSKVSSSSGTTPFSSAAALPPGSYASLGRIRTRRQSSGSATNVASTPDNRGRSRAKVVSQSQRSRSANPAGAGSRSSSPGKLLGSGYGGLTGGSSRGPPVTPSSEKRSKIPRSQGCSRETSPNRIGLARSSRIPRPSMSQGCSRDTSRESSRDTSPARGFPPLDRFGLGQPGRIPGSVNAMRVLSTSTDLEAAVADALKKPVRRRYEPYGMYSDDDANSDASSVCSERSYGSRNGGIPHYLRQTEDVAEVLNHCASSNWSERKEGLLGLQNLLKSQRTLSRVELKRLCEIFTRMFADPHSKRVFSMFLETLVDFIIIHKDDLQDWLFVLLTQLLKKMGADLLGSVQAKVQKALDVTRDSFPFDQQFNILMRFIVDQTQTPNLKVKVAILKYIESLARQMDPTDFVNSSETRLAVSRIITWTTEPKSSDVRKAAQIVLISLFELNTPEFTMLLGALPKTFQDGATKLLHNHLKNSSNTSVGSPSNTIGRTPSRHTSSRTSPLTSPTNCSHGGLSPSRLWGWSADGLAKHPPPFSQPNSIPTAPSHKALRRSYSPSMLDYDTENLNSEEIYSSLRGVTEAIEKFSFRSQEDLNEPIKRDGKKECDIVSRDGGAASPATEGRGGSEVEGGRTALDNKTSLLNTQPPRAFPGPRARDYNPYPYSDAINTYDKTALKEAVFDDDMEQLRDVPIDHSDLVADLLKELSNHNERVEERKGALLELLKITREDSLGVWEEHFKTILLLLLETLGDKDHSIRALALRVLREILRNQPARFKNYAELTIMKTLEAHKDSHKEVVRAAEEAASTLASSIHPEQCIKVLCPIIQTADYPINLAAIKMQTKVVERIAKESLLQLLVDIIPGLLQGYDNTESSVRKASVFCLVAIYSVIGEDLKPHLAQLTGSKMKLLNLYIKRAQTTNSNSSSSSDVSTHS
UniProt Q9NWW5: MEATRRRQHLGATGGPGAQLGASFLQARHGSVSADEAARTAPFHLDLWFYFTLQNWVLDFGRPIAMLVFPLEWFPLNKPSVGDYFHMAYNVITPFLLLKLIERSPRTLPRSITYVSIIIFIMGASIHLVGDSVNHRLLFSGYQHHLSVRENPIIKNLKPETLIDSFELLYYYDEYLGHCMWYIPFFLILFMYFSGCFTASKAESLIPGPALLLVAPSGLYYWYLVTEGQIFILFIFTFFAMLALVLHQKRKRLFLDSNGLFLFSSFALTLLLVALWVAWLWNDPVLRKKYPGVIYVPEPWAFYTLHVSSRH
UniProt Q9P2E5: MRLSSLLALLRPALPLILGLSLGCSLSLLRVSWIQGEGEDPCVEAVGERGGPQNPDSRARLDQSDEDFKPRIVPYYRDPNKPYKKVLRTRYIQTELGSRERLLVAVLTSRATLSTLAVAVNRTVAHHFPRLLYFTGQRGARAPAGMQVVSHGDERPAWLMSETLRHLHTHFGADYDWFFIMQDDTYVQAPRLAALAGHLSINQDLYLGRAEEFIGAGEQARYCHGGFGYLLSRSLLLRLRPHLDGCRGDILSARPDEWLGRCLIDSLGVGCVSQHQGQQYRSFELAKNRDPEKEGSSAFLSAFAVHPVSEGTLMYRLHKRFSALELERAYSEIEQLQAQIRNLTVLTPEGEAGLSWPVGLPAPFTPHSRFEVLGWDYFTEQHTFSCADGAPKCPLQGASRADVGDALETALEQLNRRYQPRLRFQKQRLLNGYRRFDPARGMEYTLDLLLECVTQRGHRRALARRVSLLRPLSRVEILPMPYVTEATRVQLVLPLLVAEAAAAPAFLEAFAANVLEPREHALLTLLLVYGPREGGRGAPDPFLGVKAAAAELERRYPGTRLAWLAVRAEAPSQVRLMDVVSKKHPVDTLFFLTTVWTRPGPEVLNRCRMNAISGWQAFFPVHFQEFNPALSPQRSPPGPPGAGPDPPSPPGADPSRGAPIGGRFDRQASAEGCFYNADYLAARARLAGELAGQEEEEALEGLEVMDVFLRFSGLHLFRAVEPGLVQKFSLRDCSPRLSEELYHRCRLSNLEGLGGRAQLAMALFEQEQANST
UniProt Q8N3C7: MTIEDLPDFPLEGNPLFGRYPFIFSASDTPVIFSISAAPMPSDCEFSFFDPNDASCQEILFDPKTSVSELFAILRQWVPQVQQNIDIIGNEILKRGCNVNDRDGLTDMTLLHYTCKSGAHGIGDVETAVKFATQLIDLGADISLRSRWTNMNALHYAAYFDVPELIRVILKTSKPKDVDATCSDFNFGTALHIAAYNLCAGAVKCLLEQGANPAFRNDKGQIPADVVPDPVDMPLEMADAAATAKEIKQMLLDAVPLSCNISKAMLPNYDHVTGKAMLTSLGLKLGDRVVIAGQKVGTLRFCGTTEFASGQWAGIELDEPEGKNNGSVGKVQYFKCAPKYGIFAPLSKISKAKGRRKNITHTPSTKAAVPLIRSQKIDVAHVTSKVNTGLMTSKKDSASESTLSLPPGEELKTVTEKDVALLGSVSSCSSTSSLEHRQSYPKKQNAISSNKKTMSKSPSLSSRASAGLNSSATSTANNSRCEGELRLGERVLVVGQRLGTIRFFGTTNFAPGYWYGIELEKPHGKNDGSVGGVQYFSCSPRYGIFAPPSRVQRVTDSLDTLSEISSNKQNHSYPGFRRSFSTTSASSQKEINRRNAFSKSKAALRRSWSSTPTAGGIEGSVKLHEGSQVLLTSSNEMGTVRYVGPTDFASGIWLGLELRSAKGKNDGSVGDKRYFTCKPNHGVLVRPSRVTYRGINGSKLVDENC
UniProt O43529: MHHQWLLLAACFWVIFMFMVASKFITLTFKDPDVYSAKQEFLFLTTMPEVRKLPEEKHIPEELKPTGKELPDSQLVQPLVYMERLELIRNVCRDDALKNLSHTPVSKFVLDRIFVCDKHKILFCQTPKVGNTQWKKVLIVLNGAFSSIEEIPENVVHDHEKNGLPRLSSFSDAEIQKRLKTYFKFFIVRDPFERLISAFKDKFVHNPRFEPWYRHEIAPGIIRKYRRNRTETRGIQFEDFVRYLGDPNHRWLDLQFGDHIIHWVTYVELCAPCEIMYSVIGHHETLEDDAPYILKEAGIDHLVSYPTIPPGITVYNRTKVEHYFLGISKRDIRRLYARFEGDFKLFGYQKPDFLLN

Tests used:
Test in all cases: log2 fold change, soluble protein after heating vs DMSO (PISA); higher = thermal stabilisation; K562 lysate, 10 uM; active = over 0.2 and 3.5 SD of the protein, either way, in both replicates (recomputed)
[1] = compound: CCCS(=O)(=O)Nc1ccc(F)c(C(=O)c2c[nH]c3ncc(-c4ccc(Cl)cc4)cc23)c1F [vemurafenib]
Summary of the method: (§1)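 Thermal stability, expressed as log-two fold change relative to solvent controls, is given from duplicates. Crude K562 extract in PBS pH 7.4 with 1 mM MgCl2, at 1 mg/mL protein, was treated with 10 μM compound for 30 min and heated in aliquots for 3 min across 48°C-58°C. After pooling, adjustment to 0.5% NP-40 at 4°C and centrifugation at 21,000xg for 90 min, supernatant protein was measured by TMTpro 16plex LC-MS/MS with channel sums equalised.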

[2] = compound: CCCS(=O)(=O)Nc1ccc(F)c(C(=O)c2c[nH]c3ncc(Cl)cc23)c1F
Summary of the method: as §1

[3] = compound: CCN(CCCOc1ccc2c(Nc3cc(CC(=O)Nc4cccc(F)c4)[nH]n3)ncnc2c1)CCOP(=O)(O)O [barasertib]
Summary of the method: as §1

[4] = compound: CC[C@@H]1C(=O)N(C)c2cnc(Nc3ccc(C(=O)NC4CCN(C)CC4)cc3OC)nc2N1C1CCCC1
Summary of the method: as §1

[5] = compound: CC[C@@H]1C(=O)N(C)c2cnc(Nc3ccc(C(=O)N[C@H]4CC[C@H](N5CCN(CC6CC6)CC5)CC4)cc3OC)nc2N1C(C)C [volasertib]
Summary of the method: as §1

[6] = compound: CCn1c(C(=O)N(C2CC2)C2CC2)cc2c3c(ncn3C)c(Nc3cc(C)n(C)n3)nc21
Summary of the method: as §1

[7] = compound: CN1CCN(c2nc(C3=C(c4c[nH]c5ccccc45)C(=O)NC3=O)c3ccccc3n2)CC1 [sotrastaurin]
Summary of the method: as §1

[8] = compound: CN1CCc2c(c3ccccc3n2Cc2ccc(C(=O)NO)cc2)C1 [Tubastatin A]
Summary of the method: as §1

[9] = compound: CNC(=O)C1=CC=CC=C1NC2=NC(=NC=C2Cl)NC3=C(C=C(C=C3)N4CCOCC4)OC
Summary of the method: as §1

[10] = compound: CNC(=O)c1ccc(Nc2ncc(C(F)(F)F)c(NCc3nccnc3N(C)S(C)(=O)=O)n2)cc1 [defactinib]
Summary of the method: as §1

[11] = compound: COC(=O)N[C@@H](C)CNc1nccc(-c2cn(C(C)C)nc2-c2cc(Cl)cc(NS(C)(=O)=O)c2F)n1 [encorafenib]
Summary of the method: as §1

[12] = compound: COC(=O)[C@H](CCSC)NC(=O)C1=C(C=C(C=C1)NC[C@H](CS)N)C2=CC=CC=C2
Summary of the method: as §1

[13] = compound: COc1cc(Nc2ncc3c(n2)-c2ccc(Cl)cc2C(c2c(F)cccc2OC)=NC3)ccc1C(=O)O [alisertib]
Summary of the method: as §1

[14] = compound: COc1cc2nc(-c3cc(F)ccc3O)nc(N[C@@H]3CNC[C@H]3C(C)(C)O)c2cc1OC
Summary of the method: as §1

[15] = compound: COc1cc2ncnc(Nc3ccc(F)c(Cl)c3)c2cc1OCCCN1CCOCC1 [gefitinib]
Summary of the method: as §1

[16] = compound: CCn1cc(-c2ccnc3[nH]c(-c4cccc(CN(C)C)c4)cc23)c(-c2ccc(NC(=O)N(C)C)cc2)n1
Summary of the method: as §1

[17] = compound: CN1CCC(CNc2ccc3ncc(-c4cccc(OC(F)(F)F)c4)n3n2)CC1
Summary of the method: as §1

[18] = compound: CN1CCN(CCOc2cc(OC3CCOCC3)c3c(Nc4c(Cl)ccc5c4OCO5)ncnc3c2)CC1 [saracatinib]
Summary of the method: as §1

[19] = compound: CN1CC[C@H](c2c(O)cc(O)c3c(=O)cc(-c4ccccc4Cl)oc23)[C@H](O)C1 [alvocidib]
Summary of the method: as §1

[20] = compound: CNc1nc(-c2ccc3c(N)n[nH]c3c2)cc(N2C[C@@H](C(=O)NC3CCCCC3)CC[C@H]2C)n1
Summary of the method: as §1

Measured: log2 fold change

CLUAP1 (UniProt I3L2E1)
inactive: [1] 0.18 | [2] 0.138 | [3] 0.066 | [4] 0.211 | [5] 0.213 | [6] -0.501 | [7] -0.247 | [8] 0.051 | [9] 0.099 | [10] -0.744 | [11] -0.382 | [12] 0.142 | [13] -0.19 | [14] 0.024 | [15] -0.168

CHIC2 (UniProt Q9UKJ5)
inactive: [1] -0.016 | [2] -0.014 | [3] 0.002 | [4] 0.105 | [5] 0.065 | [6] -0.02 | [16] -0.076 | [17] 0.076 | [18] -0.045 | [19] 0.018 | [8] 0.061 | [9] 0.138 | [10] 0.125 | [20] 0.013 | [11] -0.022 | [12] -0.053 | [13] -0.105 | [14] -0.113 | [15] 0.084

CLASP1 isoform 4 (UniProt Q7Z460)
inactive: [1] 0.272 | [9] 0.046 | [10] 0.223 | [13] 0.063 | [15] 0.107

CLN6 (UniProt Q9NWW5)
inactive: [1] 0.045 | [3] 0.022 | [4] 0.025 | [6] -0.025 | [18] 0.082 | [7] 0.072 | [8] 0.03 | [9] 0.018 | [10] -0.07 | [20] 0.058 | [11] 0.041 | [12] -0.021 | [13] -0.029 | [15] -0.037

CHPF2 (UniProt Q9P2E5)
inactive: [1] -0.123 | [4] -0.112 | [6] -0.026 | [18] -0.085 | [7] -0.035 | [8] 0.005 | [9] 0.002 | [10] -0.048 | [20] -0.045 | [11] 0.077 | [12] 0.021

CLIP4 (UniProt Q8N3C7)
inactive: [1] -0.006 | [2] 0.012 | [3] 0.098 | [4] -0.04 | [5] 0.04 | [6] 0.026 | [16] -0.045 | [17] 0.028 | [7] -0.025 | [19] -0.109 | [8] 0.04 | [9] 0.016 | [10] -0.107 | [11] -0.076 | [12] -0.143 | [13] -0.013 | [14] -0.018 | [15] -0.079

CHST10 (UniProt O43529)
inactive: [1] -0.186 | [16] -0.172 | [17] -0.097 | [19] -0.043 | [9] 0.116 | [10] 0.223
